Values of other authors in patent US6859735B1, “Computer systems for identifying pathways of drug action” (priority 1998, dated 2005).
At least one structure is not confirmed: it was looked up by name or label, or the drawing left a doubt.

Test system: Tet promoter
Conditions: Tet system in yeast, Gari et al. 1997; cited from earlier work

SMILES: C[C@H]1c2cccc(O)c2C(=O)C2=C(O)[C@]3(O)C(=O)C(C(N)=O)=C(O)[C@@H](N(C)C)[C@@H]3[C@@H](O)[C@@H]21 [doxycycline]
- level giving maximal repression of promoter activity: 10 micrograms/ml
